# Assay results taken from patent US12409184B2, “Iloprost compositions and formulations thereof” (BTG INTERNATIONAL INC., priority 2020, dated 2025).
# “And” between values parts separate entries of the source, which are not always exact repeats. Equal entries are not always repeated. Further values from the same series stand in other lists.
# Test: Example 3 solution stability of fully diluted ready-to-use iloprost in IV bags (HPLC)
# Format: physicochemical
# Method: Iloprost 100 μg/mL injection product is administered to patients by IV bag infusion over a period of six hours. The fully diluted ready to use iloprost is prepared in pharmacy cleanroom using sterile preparation standards (USP Chapter <797>) by pharmacy trained and licensed staff. The fully diluted ready to use drug product may be prepared several hours ahead of treatment with storage at ambient conditions or several days ahead of treatment with storage at refrigerated (2-8° C.) conditions. The IV bags are prepared using empty sterile IV bags which are filled with 99 mL of 0.9% NaCl and 1.0 mL of iloprost 100 µg/mL injection product. The bags are then manually mixed gently to provide a uniform solution. […] IV Bag Sample Preparation: Two 50 mL syringes with 18-gauge needles were assembled. 1.0 mL syringe with 18-gauge needle was assembled. Using a 50 mL syringe, 50 mL of 0.9% NaCl was transferred into an empty IV bag (sterile, ICU Medical) using the injection port. Using a second 50 mL syringe, 49 mL of 0.9% NaCl was transferred into the same IV bag using the injection port resulting in 99 mL of solution. Using the 1 ml syringe, 1.0 mL of iloprost 100 μg/mL injection product was transferred into the IV bag using the injection port. The needle was removed and the port was securely closed. The IV bag was gently inverted several times to mix. During inversion, it was occasionally paused to squeeze the injection port area to ensure liquid rinsed into area several times. Sampling Procedure: For sampling, a 3 mL syringe was assembled with an 18-gauge needle. Using a 3 ml syringe, 2 mL of IV bag solution was withdrew through the injection port and 1 mL was transferred to a HPLC vial for neat injection and the other 1 ml was transferred to a back-up HPLC vial. HPLC vials were stored at refrigerated conditions 2-8° C. Sample Storage and Sampling: For each testing conditions (i-iv discussed above), 12 IV bag samples were prepared (6 IV bags for condition ia)-see below for sampling time). For condition i), all 12 IV bags were then placed into 25° C./60% RH stability chamber ensuring each bag is resting on its largest surface area side. After the first time point, the IV bags were removed from the chamber and each IV bag was mixed by inversion several times. Sampling from each IV bag was taken for HPLC analysis. After sampling, the IV bags were placed back into 25° C./60% RH stability chamber ensuring each bag is resting on its largest surface area side, until next sampling time. At each sampling time, the IV bags were removed from the chamber and each IV bag was mixed by inversion several times before samples were removed. For conditions ii) and iii), all 12 IV bags for each testing condition was placed into a 2-8° C. stability chamber ensuring each bag is resting on its largest surface area side. After 5 days have passed for condition ii) or after 8 days have passed for condition iii), the IV bags were removed from the chamber and allowed to equilibrate to room temperature. Each IV bag was mixed by inversion several times. Sampling from each IV bag was taken for HPLC analysis. Then the IV bags were placed in the 25° C./60% RH stability chamber and sampled at certain time points as discussed herein. […]
# [1] = Table 8G (5° C. for 8 days to 25° C./60% RH), Batch 2, time point 5° C. for 5 days [sic]
# [2] = Table 8G, Batch 2, 5° C. for 8 days, 25° C./60% RH for 8 hr
# [3] = Table 8G, Batch 2, 5° C. for 8 days, 25° C./60% RH for 12 hr
structure (smiles),measurement,setting,value
"CC#CCC(C)[C@H](O)/C=C/[C@@H]1[C@H]2C/C(=C/CCCC(=O)O)C[C@H]2C[C@H]1O (stereo partly drawn) [Iloprost, (5E)-5-[(3aS,4R,5R,6aS)-5-hydroxy-4-[(E,3S)-3-hydroxy-4-methyloct-1-en-6-ynyl]-3,3a,4,5,6,6a-hexahydro-1H-pentalen-2-ylidene]pentanoic acid]",Iloprost,"Table 8E, Batch 2, 5° C. for 5 days, 25° C./60% for 12 hr",1003 ng/mL and 1017 ng/mL and 985.9 ng/mL
same,Iloprost,"Table 8E, Batch 2, IV bag, Initial (T = 0)",1011 ng/mL and 986 ng/mL and 1022 ng/mL (2×) and 1001 ng/mL
same,Iloprost,"Table 8F (5° C. for 8 days to 25° C./60% RH), Batch 1, time point 5° C. for 5 days [sic]",994.4 ng/mL and 953.2 ng/mL and 978.4 ng/mL and 953.1 ng/mL and 984.2 ng/mL and 956.7 ng/mL
same,Iloprost,"Table 8F, Batch 1, 5° C. for 8 days, 25° C./60% RH for 8 hr",963.5 ng/mL and 955.9 ng/mL and 967.8 ng/mL and 938.7 ng/mL and 1033 ng/mL and 961.8 ng/mL
same,Iloprost,"Table 8F, Batch 1, 5° C. for 8 days, 25° C./60% RH for 12 hr",980.5 ng/mL and 964.1 ng/mL and 986.4 ng/mL and 967.5 ng/mL and 964.2 ng/mL and 952 ng/mL
same,Iloprost,"Table 8F, Batch 1, IV bag, Initial (T = 0)",957.6 ng/mL and 970.1 ng/mL and 966.1 ng/mL and 989.6 ng/mL and 959.6 ng/mL and 964.8 ng/mL
same,% Initial,[1],100%
same,Iloprost,[1],970.1 ng/mL and 957.9 ng/mL and 1020 ng/mL and 1007 ng/mL and 993.6 ng/mL and 1014 ng/mL
same,% Initial,[2],100% and 98% and 101% and 99% and 102%
same,Iloprost,[2],983.9 ng/mL and 964.5 ng/mL and 1004 ng/mL and 997.6 ng/mL and 1011 ng/mL and 1010 ng/mL
same,% Initial,[3],99% and 98% and 101% and 100% and 102%
same,Iloprost,[3],967.5 ng/mL and 964.4 ng/mL and 1007 ng/mL and 1011 ng/mL and 1013 ng/mL and 1009 ng/mL
same,Iloprost,"Table 8G, Batch 2, IV bag, Initial (T = 0)",992.7 ng/mL and 979.6 ng/mL and 983.6 ng/mL and 998.9 ng/mL and 1009 ng/mL and 1026 ng/mL
